## Results from one PubChem assay

Data taken from PubChem BioAssay AID1159506, deposited by NCATS (2015).

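Luminescence from an EWS-FLI1 target-promoter (NR0B1) reporter, set against a CMV-promoter reporter, two days after silencing single genes in TC32 Ewing sarcoma cells.
Each siRNA was applied at 20 nM.
A z-score of the log NR0B1-over-CMV signal, less the median of siRNAs with the same seed; more negative means a stronger specific loss of the NR0B1 reporter.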

The strongest results of the screen are mostly left out here.
Sequences are the guide (antisense) strand, without overhang.

| # | siRNA | target gene | seed-corrected z-score |
|---|---|---|---|
| 1 | `UGGGAGUCCAUCAUUACCC` | CUX2 | -0.3807 |
| 2 | `UGCUUUUCAAUUGCGUAGC` | UGT2B4 | -0.4231 |
| 3 | `CUCGUAGUCAGAGCAGUCC` | ANO7 | -0.002533 |
| 4 | `UAUCAGAUAAAGAUCCAAC` | ANAPC7 | 0.2985 |
| 5 | `AGUCGGUACAGCUCCAUGU` | NTN3 | 0.4861 |
| 6 | `UUAGCAUCACAGAUAUGUC` | IL7 | 0.01084 |
| 7 | `UAUUCGAAGAAUAUUGUUC` | RALGPS1 | 0.357 |
| 8 | `UGCAGUGACUGUCUUACGC` | HIST1H4F | 1.087 |
| 9 | `UUUGUAGUAGAACUCGACC` | IPO11 | -0.08169 |
| 10 | `UGAUCUUGAAGUCUAUUCC` | RAB10 | -1.163 |
| 11 | `UUCUCCAUGACCUUAAGCC` | RRP12 | 0.861 |
| 12 | `UCAUCUAACACUACUCUAC` | IRAK3 | 0.2399 |
| 13 | `AUGAUUUUCAGGUUAUUAG` | GRXCR2 | 0.03224 |
| 14 | `UUGGGUGACUGGUUGGAGU` | LINC01139 | -0.6418 |
| 15 | `UGGGAUACCAGGAUUGAGG` | ZC2HC1C | -0.7152 |
| 16 | `UAAGUCGACACUGCUUUUA` | EXOSC7 | 0.3206 |
| 17 | `UUAGCACGAAGUUUGGGUC` | KCNH4 | 1.059 |
| 18 | `UGGUGUUACUUCAUCAUGC` | C15orf43 | 0.3911 |
| 19 | `UCCUGUAUUUCCUCUAGGC` | DDX50 | 0.1136 |
| 20 | `UCAUAGUAAAUGGAGAUGC` | C2orf47 | -1.417 |
| 21 | `AUCAGAUCUACGUAGUUGC` | LAMP5 | 0.1019 |
| 22 | `UAGCCGGAUACUAUCAGCU` | IRF5 | 0.2616 |
| 23 | `AUUAGUAUAAAGGCGGUUU` | LYSMD1 | -0.1122 |
| 24 | `UUUGUAAUGCAGGAGAUCC` | C15orf53 | -0.102 |
| 25 | `AAUUCUAUCUUGAUCAUCC` | TET1P1 | 1.264 |
| 26 | `AAUUGAAGCAGAGAAGGUG` | C1orf220 | -1.091 |
| 27 | `UAUCUCAGUACAGUUAUCG` | NRTN | 0.4974 |
| 28 | `UACGGUCAGCAUUAGGUCC` | MDGA2 | -0.05176 |
| 29 | `UCAAAUUCUAGGAUCCUCA` | IFT22 | 0.2164 |
| 30 | `AAGCUGUCCAGGACCAGUG` | OR2S2 | -1.074 |
| 31 | `UACUUGAACACGGAUAUCC` | RHBDD2 | -0.2583 |
| 32 | `UACUAUCAAACAAGGAUGC` | EPM2AIP1 | 0.6275 |
| 33 | `UCUCCGACUCUGAAAAACC` | BZW1 | 0.4021 |
| 34 | `UUACAUCAACAUAACCACC` | CRISPLD1 | 1.05 |
| 35 | `AAACGUACUGUUGAUUUGC` | CARS2 | -0.6998 |
| 36 | `AUAUUGUCGUCAGAAUUGC` | KCTD10 | 0.09934 |
| 37 | `UAAAUUCACAACGAGGAUG` | SGCG | 0.573 |
| 38 | `UCUCUUACAGAAGGUAUGC` | CENPV | -0.3738 |
| 39 | `AUAAUGACAUCAGUGAUCC` | DHTKD1 | 0.06502 |
| 40 | `UAAAGUUCACGCUCCCUUG` | ASCL2 | 1.093 |
| 41 | `UACCAUUUUGUAGAUAGCC` | VSNL1 | -0.5355 |
| 42 | `UUUGCUACCUGCUGGUUUU` | RANGRF | 0.5092 |
| 43 | `AAUAUUUGGAGCGAAAUUG` | SLC39A8 | 0.2967 |
| 44 | `UUCAAUCCCUUGAAUGUUG` | C10orf54 | 0.4599 |
| 45 | `UUACUGACAAACCACUUGC` | B3GALT5 | 0.3227 |
| 46 | `UUCAGGUCCUCAAUGAAGG` | PTP4A3 | -0.2379 |
| 47 | `UAGGAUGGACUCGUACUCC` | FUOM | -1.688 |
| 48 | `AUGGUGUCAUCAAUUGUGC` | CLINT1 | 0.02245 |
| 49 | `UAGAGGUUGUCAAACUUGC` | AHCY | 0.1488 |
| 50 | `UGUUCUCCUCGUCUGGUCG` | SAMD4B | -0.03223 |
| 51 | `UUACUUACAACAAUCCAGG` | ZNF780B | -0.4802 |
| 52 | `UCUGGGACCAUGUAAACCA` | OR2A2 | -0.1464 |
| 53 | `AAGGCUACUAUCGCUGUCC` | STEAP3 | 0.9796 |
| 54 | `UCCUUAUUCAGAUCUGACA` | SYCE3 | 2.15 |
| 55 | `UGUGAUCUGACCCAGGUUG` | SLC1A6 | 1.673 |
| 56 | `UGGUGUAAAACAGAGGGUG` | BOD1L1 | -1.786 |
| 57 | `AGAUGUAUAACCGUAUUUC` | SIGLEC6 | -0.9955 |
| 58 | `AACUGUUUCCCUACUGUCC` | MED22 | -0.1946 |
| 59 | `UGUGGUUGCACUGUUUGCG` | PPP2R5B | -1.159 |
| 60 | `UAUCAAGUCACGAUCGUUC` | LCTL | 0.8924 |
| 61 | `UUGCAGUAGAGUUAAAAUC` | TSN | -0.1931 |
| 62 | `UACACCAGCAAAUCGCUCC` | RPS16 | 1.482 |
| 63 | `UUUAGCAUAUCAAGUGUCG` | FOXJ3 | -0.243 |
| 64 | `UCAUAAACCUUCACAAGGC` | MCMBP | -0.05779 |
| 65 | `UUUGCAGAAACUCAACACC` | CHMP1A | 0.1279 |
| 66 | `UUCUGGUAAAGGUACCGCC` | ANKRD13C | -0.9688 |
| 67 | `UACUGUAUUGUUGAGCACU` | OR51E2 | -1.032 |
| 68 | `UCAGAUUCGCUCUCCAUCC` | MICALL2 | 1.034 |

7 of the entries, repeated:

- UUACAUCAACAUAACCACC against CRISPLD1 | seed-corrected z-score 1.05
- UCAAAUUCUAGGAUCCUCA against IFT22 | seed-corrected z-score 0.2164
- UCAUCUAACACUACUCUAC against IRAK3 | seed-corrected z-score 0.2399
- AUAUUGUCGUCAGAAUUGC against KCTD10 | seed-corrected z-score 0.09934
- UUGCAGUAGAGUUAAAAUC against TSN | seed-corrected z-score -0.1931
- UUCAGGUCCUCAAUGAAGG against PTP4A3 | seed-corrected z-score -0.2379
- UACGGUCAGCAUUAGGUCC against MDGA2 | seed-corrected z-score -0.05176